Paper PMC10803552
These are yes or no findings as the source states them, for the method shown. Binding seen in cells or lysates may run through a third protein. Some results given as binding are weak or reduced against the parent protein; the word gives no strength. For some of these results: Tags and fused reporters may be left off the sequences shown.

Sequences of proteins named here, by UniProt entry; tags and fusion partners are left off. Residues count along the entry.
UniProt P24394, residues 26-825: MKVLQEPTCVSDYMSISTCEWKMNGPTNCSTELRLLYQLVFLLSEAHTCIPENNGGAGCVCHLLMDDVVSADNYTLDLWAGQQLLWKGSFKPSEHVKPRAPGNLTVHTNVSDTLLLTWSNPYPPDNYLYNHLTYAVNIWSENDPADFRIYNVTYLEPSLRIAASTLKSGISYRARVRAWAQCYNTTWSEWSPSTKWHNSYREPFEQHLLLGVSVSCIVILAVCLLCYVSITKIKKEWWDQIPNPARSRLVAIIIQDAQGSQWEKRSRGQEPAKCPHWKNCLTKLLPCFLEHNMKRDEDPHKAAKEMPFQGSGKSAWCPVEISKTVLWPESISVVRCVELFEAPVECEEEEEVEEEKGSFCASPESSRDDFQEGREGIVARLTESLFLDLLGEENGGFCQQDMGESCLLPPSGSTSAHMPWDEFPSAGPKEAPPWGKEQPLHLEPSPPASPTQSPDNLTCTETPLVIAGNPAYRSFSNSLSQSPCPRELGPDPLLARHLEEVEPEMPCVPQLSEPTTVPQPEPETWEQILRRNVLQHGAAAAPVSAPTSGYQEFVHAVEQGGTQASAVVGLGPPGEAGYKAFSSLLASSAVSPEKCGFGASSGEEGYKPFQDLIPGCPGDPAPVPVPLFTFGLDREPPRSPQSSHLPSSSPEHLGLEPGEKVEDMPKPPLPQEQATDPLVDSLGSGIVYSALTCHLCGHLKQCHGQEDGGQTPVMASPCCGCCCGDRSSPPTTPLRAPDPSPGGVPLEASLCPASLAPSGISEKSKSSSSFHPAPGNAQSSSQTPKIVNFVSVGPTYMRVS
UniProt P23458: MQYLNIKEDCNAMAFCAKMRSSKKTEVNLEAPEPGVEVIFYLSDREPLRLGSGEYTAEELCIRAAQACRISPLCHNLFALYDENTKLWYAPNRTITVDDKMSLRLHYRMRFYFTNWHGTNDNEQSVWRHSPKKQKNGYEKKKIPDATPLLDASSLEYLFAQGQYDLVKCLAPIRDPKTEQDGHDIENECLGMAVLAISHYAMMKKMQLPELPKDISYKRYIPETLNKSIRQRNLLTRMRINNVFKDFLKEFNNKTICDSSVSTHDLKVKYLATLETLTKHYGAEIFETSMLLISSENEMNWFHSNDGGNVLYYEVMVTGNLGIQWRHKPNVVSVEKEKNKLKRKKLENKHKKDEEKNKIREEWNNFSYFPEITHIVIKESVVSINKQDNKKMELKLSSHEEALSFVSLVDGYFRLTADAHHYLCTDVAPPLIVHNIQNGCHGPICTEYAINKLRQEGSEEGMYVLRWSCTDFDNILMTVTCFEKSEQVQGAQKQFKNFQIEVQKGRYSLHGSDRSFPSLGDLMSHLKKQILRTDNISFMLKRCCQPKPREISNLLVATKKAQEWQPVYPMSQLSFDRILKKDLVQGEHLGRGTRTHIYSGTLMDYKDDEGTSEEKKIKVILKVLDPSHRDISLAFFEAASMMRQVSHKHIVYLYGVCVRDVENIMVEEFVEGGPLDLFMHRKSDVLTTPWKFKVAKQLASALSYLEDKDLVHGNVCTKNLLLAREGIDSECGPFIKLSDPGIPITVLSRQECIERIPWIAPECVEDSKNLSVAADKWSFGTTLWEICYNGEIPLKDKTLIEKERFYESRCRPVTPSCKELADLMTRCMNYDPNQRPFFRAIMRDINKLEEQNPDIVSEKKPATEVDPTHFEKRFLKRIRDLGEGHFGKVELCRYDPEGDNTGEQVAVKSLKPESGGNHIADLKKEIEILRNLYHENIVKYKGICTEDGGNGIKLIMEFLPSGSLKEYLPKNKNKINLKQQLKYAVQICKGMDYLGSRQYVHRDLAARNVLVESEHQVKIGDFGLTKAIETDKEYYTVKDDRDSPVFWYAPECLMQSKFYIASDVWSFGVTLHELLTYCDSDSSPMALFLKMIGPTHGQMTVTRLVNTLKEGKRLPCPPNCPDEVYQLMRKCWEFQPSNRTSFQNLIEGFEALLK
UniProt Q14764: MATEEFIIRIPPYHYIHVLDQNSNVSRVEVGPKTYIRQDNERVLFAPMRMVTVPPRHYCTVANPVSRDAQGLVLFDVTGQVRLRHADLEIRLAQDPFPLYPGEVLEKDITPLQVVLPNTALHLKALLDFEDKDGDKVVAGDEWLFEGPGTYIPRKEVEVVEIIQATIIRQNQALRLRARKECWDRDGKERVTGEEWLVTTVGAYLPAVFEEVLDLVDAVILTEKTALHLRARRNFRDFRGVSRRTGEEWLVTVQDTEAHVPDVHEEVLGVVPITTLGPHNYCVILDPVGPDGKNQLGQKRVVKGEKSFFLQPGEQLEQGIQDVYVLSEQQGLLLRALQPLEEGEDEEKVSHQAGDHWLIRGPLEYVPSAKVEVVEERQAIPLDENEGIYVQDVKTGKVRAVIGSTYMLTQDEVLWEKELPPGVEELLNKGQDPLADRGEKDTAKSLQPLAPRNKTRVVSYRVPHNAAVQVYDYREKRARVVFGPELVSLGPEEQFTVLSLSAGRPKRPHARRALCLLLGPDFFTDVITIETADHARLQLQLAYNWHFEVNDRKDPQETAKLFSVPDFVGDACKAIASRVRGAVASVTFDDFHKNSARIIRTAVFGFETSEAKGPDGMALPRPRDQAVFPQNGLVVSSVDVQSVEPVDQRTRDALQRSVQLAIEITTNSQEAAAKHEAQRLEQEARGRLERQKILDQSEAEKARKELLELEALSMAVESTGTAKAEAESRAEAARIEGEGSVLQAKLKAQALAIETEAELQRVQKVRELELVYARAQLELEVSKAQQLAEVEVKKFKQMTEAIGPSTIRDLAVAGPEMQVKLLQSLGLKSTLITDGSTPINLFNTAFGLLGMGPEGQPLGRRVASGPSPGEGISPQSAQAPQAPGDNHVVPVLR
UniProt P52332: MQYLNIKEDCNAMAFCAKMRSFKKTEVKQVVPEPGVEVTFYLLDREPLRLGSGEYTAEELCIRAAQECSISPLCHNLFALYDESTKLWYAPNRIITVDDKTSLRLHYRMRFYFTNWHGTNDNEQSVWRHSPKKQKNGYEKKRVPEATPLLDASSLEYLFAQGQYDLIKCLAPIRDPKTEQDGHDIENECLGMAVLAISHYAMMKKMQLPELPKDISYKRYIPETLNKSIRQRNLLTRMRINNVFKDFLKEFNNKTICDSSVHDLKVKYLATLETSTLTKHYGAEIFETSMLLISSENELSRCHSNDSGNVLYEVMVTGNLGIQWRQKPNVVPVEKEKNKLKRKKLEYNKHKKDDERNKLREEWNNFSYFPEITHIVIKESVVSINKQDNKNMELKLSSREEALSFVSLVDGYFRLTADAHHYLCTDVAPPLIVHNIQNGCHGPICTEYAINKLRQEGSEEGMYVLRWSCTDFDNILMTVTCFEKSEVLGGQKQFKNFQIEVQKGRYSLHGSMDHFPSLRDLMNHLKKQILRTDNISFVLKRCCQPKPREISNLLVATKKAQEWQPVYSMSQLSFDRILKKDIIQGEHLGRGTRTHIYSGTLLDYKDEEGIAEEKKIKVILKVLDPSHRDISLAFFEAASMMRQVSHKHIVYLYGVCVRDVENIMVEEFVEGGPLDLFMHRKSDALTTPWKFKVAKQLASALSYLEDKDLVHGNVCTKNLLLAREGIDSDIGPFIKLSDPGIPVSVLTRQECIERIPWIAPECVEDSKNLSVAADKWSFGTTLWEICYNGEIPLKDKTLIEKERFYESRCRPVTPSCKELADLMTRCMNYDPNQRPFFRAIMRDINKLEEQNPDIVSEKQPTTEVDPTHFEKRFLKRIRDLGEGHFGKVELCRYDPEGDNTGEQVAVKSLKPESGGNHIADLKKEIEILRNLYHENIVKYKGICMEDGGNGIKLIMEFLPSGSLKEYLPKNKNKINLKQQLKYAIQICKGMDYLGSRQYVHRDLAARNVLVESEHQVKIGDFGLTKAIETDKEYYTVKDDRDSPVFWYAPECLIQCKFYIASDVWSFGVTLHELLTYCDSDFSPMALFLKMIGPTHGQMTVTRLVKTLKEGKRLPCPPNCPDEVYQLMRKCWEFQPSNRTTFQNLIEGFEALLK

What was measured:
[1] = biological target: HA-IL-4Rα (UniProt P24394); test: co-IP; HEK293T co-transfected for 36 h; NP-40 lysis buffer (150 mM NaCl, 20 mM Tris-HCl pH 7.4, 1% NP-40); antibody overnight at 4°C, protein A/G agarose; washed five times with NP-40 buffer containing 1 M NaCl; immunoblot
[2] = biological target: Flag-JAK1 (UniProt P23458); test: as above
[3] = biological target: T1, Flag-tagged STAT6 (signal transducer and activator of transcription 6) (UniProt P42226); test: as above
T1 sequence: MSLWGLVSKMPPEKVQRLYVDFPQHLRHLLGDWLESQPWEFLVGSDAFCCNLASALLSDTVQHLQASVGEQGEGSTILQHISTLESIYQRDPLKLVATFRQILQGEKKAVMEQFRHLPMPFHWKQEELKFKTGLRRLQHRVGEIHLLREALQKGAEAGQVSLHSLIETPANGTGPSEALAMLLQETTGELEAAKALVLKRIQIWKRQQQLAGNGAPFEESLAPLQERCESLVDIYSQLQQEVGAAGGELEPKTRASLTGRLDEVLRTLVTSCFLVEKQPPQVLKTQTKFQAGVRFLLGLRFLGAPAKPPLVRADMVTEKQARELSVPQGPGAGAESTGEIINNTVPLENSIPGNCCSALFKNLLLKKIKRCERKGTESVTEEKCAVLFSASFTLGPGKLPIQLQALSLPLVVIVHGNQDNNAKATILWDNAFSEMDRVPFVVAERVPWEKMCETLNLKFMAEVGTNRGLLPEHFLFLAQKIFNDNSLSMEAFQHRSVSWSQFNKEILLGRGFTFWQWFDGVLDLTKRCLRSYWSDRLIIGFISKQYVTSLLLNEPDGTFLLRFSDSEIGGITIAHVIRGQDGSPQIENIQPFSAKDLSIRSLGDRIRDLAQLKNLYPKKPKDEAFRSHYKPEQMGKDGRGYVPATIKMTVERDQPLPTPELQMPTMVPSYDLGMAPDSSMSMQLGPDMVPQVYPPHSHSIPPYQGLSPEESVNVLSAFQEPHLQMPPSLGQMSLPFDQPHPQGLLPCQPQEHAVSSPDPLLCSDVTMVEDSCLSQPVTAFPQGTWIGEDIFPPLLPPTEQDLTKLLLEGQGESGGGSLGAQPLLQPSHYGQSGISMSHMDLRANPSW

[4] = biological target: T2, STAT6, endogenous in mouse BMDMs (mouse (endogenous in BMDMs)) (UniProt P52633); test: co-IP; endogenous Co-IP in mouse BMDMs (Wt; for JAK1-STAT6 also Mvp-/-), stimulated with medium or IL-4 for 30 min; immunoblot
T2 sequence: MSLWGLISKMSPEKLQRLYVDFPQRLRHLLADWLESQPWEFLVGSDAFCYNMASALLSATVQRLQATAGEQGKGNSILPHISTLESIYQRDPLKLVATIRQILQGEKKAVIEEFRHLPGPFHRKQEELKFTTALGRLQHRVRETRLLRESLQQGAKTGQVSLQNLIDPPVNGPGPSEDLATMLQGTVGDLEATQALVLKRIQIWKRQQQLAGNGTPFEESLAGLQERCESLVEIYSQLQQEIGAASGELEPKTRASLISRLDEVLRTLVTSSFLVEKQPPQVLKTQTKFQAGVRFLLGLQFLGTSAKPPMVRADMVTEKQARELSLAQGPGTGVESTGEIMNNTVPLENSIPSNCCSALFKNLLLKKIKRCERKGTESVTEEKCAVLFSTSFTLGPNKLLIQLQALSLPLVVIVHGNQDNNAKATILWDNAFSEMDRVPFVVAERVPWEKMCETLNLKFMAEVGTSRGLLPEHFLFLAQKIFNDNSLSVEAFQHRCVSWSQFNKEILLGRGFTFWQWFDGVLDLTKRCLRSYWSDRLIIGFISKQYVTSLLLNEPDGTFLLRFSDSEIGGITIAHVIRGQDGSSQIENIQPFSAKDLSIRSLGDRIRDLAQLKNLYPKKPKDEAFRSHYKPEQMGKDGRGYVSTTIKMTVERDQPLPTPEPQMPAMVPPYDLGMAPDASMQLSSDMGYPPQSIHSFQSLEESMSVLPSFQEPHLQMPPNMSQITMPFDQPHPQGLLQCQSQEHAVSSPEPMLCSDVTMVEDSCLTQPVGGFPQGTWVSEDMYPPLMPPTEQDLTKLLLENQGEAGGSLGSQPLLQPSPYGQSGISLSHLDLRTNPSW

**Q.** For Flag-MVP (from UniProt Q14764 1-893), which binding [1] is on record?
**A.** no binding

**Q.** With “HA-tagged MVP (major vault protein) (from UniProt Q14764 1-893)” as the substance, how does the binding [2] read?
**A.** binds

**Q.** And the binding [3]?
**A.** binds

**Q.** For “JAK1, endogenous in mouse BMDMs (from UniProt P52332 1-1153)”, which binding [4] is on record?
**A.** binds
